Earlier results, collected in US11359011B2, “Treatment and prevention of cardiovascular disease” (Edifice Health, Inc., priority 2019, dated 2022).
At least one compound was matched to its structure with a doubt left.

Tested on: BK channel
Details: MCF-7 breast epithelial cancer cells, cited from earlier work

C[C@]12CC[C@@H]3c4ccc(O)cc4CC[C@H]3[C@@H]1CC[C@@H]2O [Estradiol]
concentration reaching maximal effect on BK channel activity: 10 nM | EC50 (read-out: EC50 of fast increase in BK channel activity): 0.08 nM
